PMC7434441
These are yes or no findings as the source states them, for the method shown. Binding seen in cells or lysates may run through a third protein.

The chains behind the UniProt entries cited, without tags or fusion partners. Where a name states a change or a piece, a line headed by the entry shows the natural chain unless it says otherwise.
UniProt Q9D219: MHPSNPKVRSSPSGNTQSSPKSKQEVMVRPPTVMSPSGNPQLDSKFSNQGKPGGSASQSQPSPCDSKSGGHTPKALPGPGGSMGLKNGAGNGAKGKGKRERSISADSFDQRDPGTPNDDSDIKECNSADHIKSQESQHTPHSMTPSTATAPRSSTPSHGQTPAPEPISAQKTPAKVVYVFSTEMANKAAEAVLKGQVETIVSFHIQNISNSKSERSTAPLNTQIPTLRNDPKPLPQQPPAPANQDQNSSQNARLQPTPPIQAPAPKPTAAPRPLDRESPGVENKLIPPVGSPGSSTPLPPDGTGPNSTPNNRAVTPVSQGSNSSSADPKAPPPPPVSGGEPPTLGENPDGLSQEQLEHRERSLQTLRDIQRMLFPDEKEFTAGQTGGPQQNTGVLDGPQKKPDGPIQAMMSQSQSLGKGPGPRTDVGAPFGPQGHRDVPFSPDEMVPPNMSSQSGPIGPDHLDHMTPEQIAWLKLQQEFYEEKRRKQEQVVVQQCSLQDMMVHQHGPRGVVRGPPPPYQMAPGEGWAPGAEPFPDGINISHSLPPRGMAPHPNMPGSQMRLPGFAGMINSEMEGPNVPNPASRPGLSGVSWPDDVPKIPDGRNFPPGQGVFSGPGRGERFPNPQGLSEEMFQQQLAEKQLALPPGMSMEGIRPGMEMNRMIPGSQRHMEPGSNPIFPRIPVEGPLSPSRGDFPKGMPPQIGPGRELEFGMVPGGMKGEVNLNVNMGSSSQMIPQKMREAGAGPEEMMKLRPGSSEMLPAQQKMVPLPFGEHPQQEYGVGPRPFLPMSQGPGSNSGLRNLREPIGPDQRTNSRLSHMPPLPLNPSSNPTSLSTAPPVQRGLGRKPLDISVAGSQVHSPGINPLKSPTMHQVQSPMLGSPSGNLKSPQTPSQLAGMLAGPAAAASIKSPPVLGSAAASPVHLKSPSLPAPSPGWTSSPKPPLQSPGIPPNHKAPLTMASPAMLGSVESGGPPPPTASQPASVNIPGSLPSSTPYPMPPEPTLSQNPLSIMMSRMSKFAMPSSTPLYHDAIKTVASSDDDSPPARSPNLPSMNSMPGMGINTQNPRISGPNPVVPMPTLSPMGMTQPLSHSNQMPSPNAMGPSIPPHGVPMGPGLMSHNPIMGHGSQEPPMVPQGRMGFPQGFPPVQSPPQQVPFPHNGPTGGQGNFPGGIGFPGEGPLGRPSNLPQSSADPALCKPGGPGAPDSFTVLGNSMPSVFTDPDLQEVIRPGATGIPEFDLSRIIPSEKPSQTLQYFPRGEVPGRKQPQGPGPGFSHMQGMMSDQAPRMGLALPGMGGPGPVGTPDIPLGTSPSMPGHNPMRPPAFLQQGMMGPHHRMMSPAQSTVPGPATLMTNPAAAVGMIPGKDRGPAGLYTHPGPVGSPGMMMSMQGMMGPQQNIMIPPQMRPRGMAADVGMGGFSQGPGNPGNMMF

Molecular target: BCL9-ΔHD1 (HD1-deleted variant of BCL9, endogenous in Bcl9/9l-ΔHD1 mouse tumors) (mouse (endogenous in mouse colorectal tumors)) (UniProt Q9D219)
Test: co-IP; the same anti-BCL9 immunoprecipitates of control or Bcl9/9l-ΔHD1 mouse tumor extracts, SDS-PAGE and blot probed with anti-TBX3

binding: no binding
B1: TBX3 (endogenous in mouse colorectal tumors) (protein, UniProt P70324 1-741)
chain: MSLSMRDPVIPGTSMAYHPFLPHRAPDFAMSAVLGHQPPFFPALTLPPNGAAALSLPGALAKPIMDQLVGAAETGIPFSSLGPQAHLRPLKTMEPEEDVEDDPKVHLEAKELWDQFHKRGTEMVITKSGRRMFPPFKVRCSGLDKKAKYILLMDIIAADDCRYKFHNSRWMVAGKADPEMPKRMYIHPDSPATGEQWMSKVVTFHKLKLTNNISDKHGFTLAFPSDHATWQGNYSFGTQTILNSMHKYQPRFHIVRANDILKLPYSTFRTYLFPETEFIAVTAYQNDKITQLKIDNNPFAKGFRDTGNGRREKRKQLTLQSMRVFEERHKKETSDESSSEQAAFNCFAQASSPAVSIVGTSNLKDLCPSEAESDAEAESKEEHGPEACDAAKISTTTAEEPGRDKGSPATRAQLFPAEPSRARDTARLDKASPDSRHSPATISSSTRVPGADERRSPGREGPVATKVDEARAIPAKDAFAPLSVQTDATAHLAQGPLPGLGFAPGLAGQQFFNGHPLFLHPGQFAMGGAFSSMAAGMGPLLATVSGASTGVSGLESTAMASAAAAQGLSGASAATLPFHLQQHVLASQGLAMSPFGSLFPYPYTYMAAAAAASTAAASSSVHRHPFLNLNSMRPRLRYSPYSIPVPVPDSSSLLATALPSMASAAGPLDGKAAALAASPASVAVDSGSELNSRSSTLSSGSVSLSPKLCSEKEAATSELQSIQRLVSGLEAKPDRSCSGSP
